The supplement of paper PMC4604168 (melanoma cell lines)
The other results are listed elsewhere or left out. Many values rest on one well or one pass, so single values are uncertain.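 Cells were imaged in 1,536-well plates, and nuclei stained with an antibody against cleaved PARP were counted against all DNA-stained nuclei to give the apoptosis fraction. Screening doses were chosen to leave most cells alive, and resting and induced cleaved-PARP levels differ strongly between cell lines.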

Legend:
Assay in all cases: cleaved PARP positive nuclei fraction relative to DMSO control; melanoma cells; higher = more apoptosis
Settings in all cases: library dose: low library concentration; 72 h
WM115 = test system: WM115
WM1716 = test system: WM1716
WM1745 = test system: WM1745
WM3526 = test system: WM3526
WM3619 = test system: WM3619
WM451Lu = test system: WM451Lu

| Compound | cleaved PARP positive nuclei fraction (WM115) | cleaved PARP positive nuclei fraction (WM1716) | cleaved PARP positive nuclei fraction (WM1745) | cleaved PARP positive nuclei fraction (WM3526) | cleaved PARP positive nuclei fraction (WM3619) | cleaved PARP positive nuclei fraction (WM451Lu) |
| --- | --- | --- | --- | --- | --- | --- |
| OCc1c[nH]c2ccccc12 [Indole-3-carbinol] + O=c1cc(-c2cccc3c2Sc2ccccc2S3)oc(N2CCOCC2)c1 [KU55933] (first compound 0.8 µM, partner dose 1 µM) | 117% | 35.6% | 188% | 66.5% | 16% | 23.8% |
| CC(C)(C)c1cnc(CSc2cnc(NC(=O)C3CCNCC3)s2)o1 + Cc1cc([N+](=O)[O-])ccc1NS(=O)(=O)c1cc(Cl)ccc1Cl [FH535] (first compound 0.01 µM, partner dose 1 µM) | 158% | 29.8% | 104% | 87.7% | 87.4% | 61.7% |
| C=CCn1c(=O)c2cnc(Nc3ccc(N4CCN(C)CC4)cc3)nc2n1-c1cccc(C(C)(C)O)n1 + C[C@@H]1CCN(C(=O)CC#N)C[C@@H]1N(C)c1ncnc2[nH]ccc12 [CP690550] (first compound 0.02 µM, partner dose 1 µM) | 72.4% | 88.5% | 113% | 113% | 201% | 60% |
| Cc1nc(Nc2ncc(C(=O)Nc3c(C)cccc3Cl)s2)cc(N2CCN(CCO)CC2)n1 [dasatanib] + O=C(Nc1ccccc1)c1cc([N+](=O)[O-])ccc1Cl [GW9662] (first compound 0.004 µM, partner dose 2 µM) | 326% | 226% | 146% | 65.9% | 82.6% | 347% |
| CC1(C)NC(=O)N(c2ccc([N+](=O)[O-])c(C(F)(F)F)c2)C1=O [nilutamide] + Cc1ccc(NC(=O)c2cccc(N(C)C)c2)cc1NC(=O)c1ccc(O)cc1 [ZM336372] (first compound 1 µM, partner dose 2 µM) | 104% | 137% | 125% | 297% | 81.6% | 49.2% |
| CC(=O)c1c(C)c2cnc(Nc3ccc(N4CCNCC4)cn3)nc2n(C2CCCC2)c1=O [palbociclib] + COC(=O)c1sccc1S(=O)(=O)Nc1ccc(Nc2ccccc2)cc1OC [GSK0660] (first compound 0.04 µM, partner dose 1 µM) | 71.6% | 15.7% | 107% | 113% | 15.9% | 267% |
| Cc1ccc(NC(=O)c2cccc(N(C)C)c2)cc1NC(=O)c1ccc(O)cc1 + OCCn1cc(-c2cnc3nnn(Cc4ccc5ncccc5c4)c3n2)cn1 [PF04217903] (first compound 2 µM, partner dose 1 µM) | 72.8% | 119% | 112% | 183% | 90% | 338% |
| Cc1cc(N2CCOCC2)cc2[nH]c(-c3c(NC[C@@H](O)c4cccc(Cl)c4)cc[nH]c3=O)nc12 + O=C(O)c1ccc(-c2c[nH]c3ncc(-c4ccccc4)cc23)cc1C1CCCC1 [GSK650394] (first compound 0.2 µM, partner dose 0.16 µM) | 76.3% | 92.3% | 123% | 65% | 108% | 97% |
| Cn1c(Nc2ccc(C(F)(F)F)cc2)nc2cc(Oc3ccnc(-c4ncc(C(F)(F)F)[nH]4)c3)ccc21 + O=C(CCCCCCC(=O)Nc1ccccc1)NO [vorinostat] (first compound 0.08 µM, partner dose 0.08 µM) | 831% | 171% | 122% | 109% | 177% | 91.1% |
| COCC[n+]1c2c(n(Cc3cnccn3)c1C)C(=O)c1ccccc1C2=O + O=C(O)c1ccc(-c2c[nH]c3ncc(-c4ccccc4)cc23)cc1C1CCCC1 [GSK650394] (first compound 0.0004 µM, partner dose 0.16 µM) | 40.8% | 128% | 96.8% | 424% | 82.5% | 198% |
| OCc1c[nH]c2ccccc12 [Indole-3-carbinol] + COC(=O)c1sccc1S(=O)(=O)Nc1ccc(Nc2ccccc2)cc1OC [GSK0660] (first compound 0.8 µM, partner dose 1 µM) | 218% | 169% | 79.6% | 72.3% | 64.2% | 89.9% |
| Cn1nnc2c(C(N)=O)ncn2c1=O [temozolomide] + CCCCCCCCCCCC1=C(O)C(=O)C=C(O)C1=O [Embelin] (first compound 2 µM, partner dose 1.2 µM) | 93.3% | 147% | 120% | 71.4% | 88.3% | 27.4% |
| OCCn1cc(-c2cnc3nnn(Cc4ccc5ncccc5c4)c3n2)cn1 + Cc1cc([N+](=O)[O-])ccc1NS(=O)(=O)c1cc(Cl)ccc1Cl [FH535] (first compound 1 µM, partner dose 1 µM) | 132% | 53.7% | 114% | 70.4% | 80.4% | 164% |

Two records drawn at random from those above, as already listed:

| Compound | cleaved PARP positive nuclei fraction (WM115) | cleaved PARP positive nuclei fraction (WM1716) | cleaved PARP positive nuclei fraction (WM1745) | cleaved PARP positive nuclei fraction (WM3526) | cleaved PARP positive nuclei fraction (WM3619) | cleaved PARP positive nuclei fraction (WM451Lu) |
| --- | --- | --- | --- | --- | --- | --- |
| CC1(C)NC(=O)N(c2ccc([N+](=O)[O-])c(C(F)(F)F)c2)C1=O [nilutamide] + Cc1ccc(NC(=O)c2cccc(N(C)C)c2)cc1NC(=O)c1ccc(O)cc1 [ZM336372] (first compound 1 µM, partner dose 2 µM) | 104% | 137% | 125% | 297% | 81.6% | 49.2% |
| OCc1c[nH]c2ccccc12 [Indole-3-carbinol] + COC(=O)c1sccc1S(=O)(=O)Nc1ccc(Nc2ccccc2)cc1OC [GSK0660] (first compound 0.8 µM, partner dose 1 µM) | 218% | 169% | 79.6% | 72.3% | 64.2% | 89.9% |
